{
  "source": "patent US20170267716",
  "test_in_all_cases": "pull-down",
  "key": {"[1]": {"test_system": "IgE antibody (full-length) (Homo sapiens)", "settings": "5' azide (5AzideN), conjugated via DBCO click to pNIPAM (28 kDa), 5' T10 spacer, PBS, purified native protein, protein details: Athens Research & Technology, single-stranded DNA; for binding signal: affinity thermoprecipitation, 200 nM IgE, 1 mM MgCl2, 0.005% Tween-20, RT 1 h, eluted 0.5 M NaCl"}, "[2]": {"molecular_target": "L-selectin (Homo sapiens) (UniProt P14151)", "settings": "5' azide (5AzideN), conjugated via DBCO click to pNIPAM (18 or 28 kDa), single-stranded DNA; for binding result: 5' T10 spacer, off-target control, no measurable recovery, HBS-P pH 7.4"}, "Thrombin": {"test_system": "Thrombin", "settings": "5' azide (5AzideN), conjugated via DBCO click to pNIPAM (18 or 28 kDa); 5' T10 spacer; only modest recovery; 200 nM protein, HBS-P pH 7.4, 150 mM NaCl; eluted 0.5 M NaCl; single-stranded DNA"}},
  "note": "For at least one entry, the source does not settle the construct or the ends of the probe. For some of these results: No signal at the amounts used counts as a negative. For some of these results: Whether high values mean tight binding is not given here for every scale.",
  "data": [
    {"sequence": "TTTTTTTTTTCTGCTCGTTGGCTGAGGCCGTCTCGCGTCGCAGCGCTACGGCCCC [Extended IgE randomer]", "values": [
      {"measurement": "binding result", "setting": "[1]; randomer control, no measurable recovery, 1 mM MgCl2, 0.005% Tween-20, variant of Extended IgE aptamer", "result": "no binding"}
    ]},
    {"sequence": "TTTTTTTTTTGCGCGGGGCACGTTTATCCGTCCCTCCTAGTGGCGTGCCCCGCGC [Extended IgE aptamer]", "values": [
      {"measurement": "binding signal", "setting": "[1]; Example 8 first round ~52.7%, variant of IgE aptamer (IGE)", "result": 77, "unit": "% recovery"}
    ]},
    {"sequence": "TTTTTTTTTTGGTGGTGGTTGTGGT [Thrombin randomer]", "values": [
      {"measurement": "binding result", "setting": "[2]; variant of Thrombin aptamer", "result": "no binding"}
    ]},
    {"sequence": "TTTTTTTTTTTAGCCAAGGTAACCAGTACAAGGTGCTAAACGTAATGGCTTCGGCTTAC [L-Selectin aptamer]", "values": [
      {"measurement": "binding signal", "setting": "[2]; 5' T spacer, affinity thermoprecipitation, 200 nM protein, HBS-P pH 7.4, 150 mM NaCl, RT 1 h, eluted in 1xTBE", "result": "> 60", "unit": "% recovery"}
    ]},
    {"sequence": "TTTTTTTTTTGGGGCACGTTTATCCGTCCCTCCTAGTGGCGTGCCCC [IgE aptamer (IGE)]", "values": [
      {"measurement": "binding signal", "setting": "[1]; ~75% recovered from spent CHO media (Example 7, p104)", "result": 55, "unit": "% recovery"}
    ]},
    {"sequence": "TTTTTTTTTTGGTTGGTGTGGTTGG [Thrombin aptamer]", "values": [
      {"measurement": "binding result", "setting": "[2]", "result": "no binding"},
      {"measurement": "binding result", "setting": "Thrombin", "result": "binds"}
    ]}
  ]
}
